PubChem BioAssay AID540276 (National Center for Advancing Translational Sciences (NCATS), 2011)
Several values for one entry are separate records, joined by “and”; a condition that tells them apart may be missing. Equal entries are not always repeated. Out of some 300,000 compounds screened, about 5,400 (1.8%) were called active. The inconclusive results got no clear call from the source; some entries with a clear call stand among them for comparison. The call rests on the fitted dose curve; tested in HEK293 cells. Potencies beside an inconclusive call are fits to weak or partial responses and may not hold up.

Assay: qHTS for inhibitors of binding or entry into cells for Marburg Virus
Details: Marburg virus pseudotyped entry inhibition, cell reporter; series mostly up to 37.8 µM
Potency means the concentration at half of the fitted maximal effect.

Structure (SMILES)	Potency
COc1ccccc1/C=C/C(=O)c1cc(Br)ccc1OC(=O)c1ccco1	inconclusive: 17.8 µM [inhibitor, partial curve, poor fit]
CN(C)CCN1C(=O)C(=O)/C(=C(/O)c2ccc(F)cc2)C1c1ccccc1 (stereo not drawn)	inconclusive: 15.8 µM [activator, single point]
CC(=O)c1ccc(NC(=O)c2ccc(COc3ccccc3[N+](=O)[O-])o2)cc1	inconclusive: 7.08 µM [inhibitor, full curve, poor fit]
CN=Cc1nc(-c2ccccc2)oc1O	inconclusive: 35.5 µM [inhibitor, single point]
O=C(Nc1ccccc1Br)C(Cc1ccccc1)NS(=O)(=O)c1cccc2nsnc12 (stereo not drawn)	inconclusive: 11.2 µM [inhibitor, single point]
O=C(Nc1ccc(Cl)cc1)OCCn1nnnc1C(c1ccccc1)N1CCOCC1 (stereo not drawn)	inconclusive: 35.5 µM [inhibitor, single point]
COc1ccc(Oc2ccc(/C=C/C(=O)c3cccc(OC)c3)cc2[N+](=O)[O-])cc1	inconclusive: 35.5 µM [inhibitor, single point]
O=c1onc2n1-c1cc(Br)ccc1OC2	inconclusive: 23.1 µM [activator, partial curve, poor fit] and inconclusive: 501 nM [inhibitor, full curve]
O=C(CSc1nc(O)cc(=O)n1-c1ccc(Cl)c(Cl)c1)Nc1ccc(Cl)cc1Cl	inactive
Cc1ccccc1CN(c1ccc(C(=O)NCc2ccccn2)cc1)S(C)(=O)=O	inactive
CN1CCN(S(=O)(=O)c2ccc(NC(=O)c3ccc(Br)s3)cc2)CC1	inconclusive: 29.1 µM [inhibitor, single point]
Oc1ccc(/C=N/NC(=S)N2CCOCC2)cc1	inactive
Cc1cc(C)nc(SCC(=O)N/N=C/c2cccn2-c2cccc(C(F)(F)F)c2)n1	inconclusive: 11.6 µM [inhibitor, partial curve, poor fit]
COc1cc(C(=O)OCCNC(=O)c2ccccc2)cc(OC)c1OC	inconclusive: 2.51 µM [inhibitor, partial curve]
COc1ccc(C2(CNC(=O)c3cccc([N+](=O)[O-])c3)CCCCC2)cc1OC	inconclusive: 22.4 µM [inhibitor, single point]
CC1C(=O)N(Cc2cn(Cc3ccco3)nn2)CCS(=O)(=O)N1Cc1ccc(-c2cccc(N(C)C)c2)cc1 (stereo not drawn)	inconclusive: 4.99 µM [activator, partial curve, poor fit]
COc1ccc(CN(C(=O)c2nsc(Cl)c2Cl)C(C(=O)NC2CCCC2)c2ccc(OC)cc2)cc1 (stereo not drawn)	inconclusive: 29.1 µM [inhibitor, single point]
CCOC(=O)C1=C(O)C(=O)C(C(=O)OCC)C1 (stereo not drawn)	inconclusive: 0.398 µM [inhibitor, single point]
Cc1ccn2c(NC(=O)c3ccccc3)c(-c3cccs3)nc2c1	inconclusive: 29.1 µM [activator, single point]
CCOc1ccccc1-c1noc(CCC(=O)Nc2cccnc2)n1	inactive
CCN(CC(=O)Nc1ccc(OC)cc1)C(=O)c1ccc2c(c1)NC(=O)CS2	inactive
Cc1ccc(C)c(N(C(=O)c2snc(C(N)=O)c2N)C(C(=O)NCC2CCCO2)c2cccs2)c1 (stereo not drawn)	inconclusive: 3.55 µM [inhibitor, partial curve, poor fit]

Shown bar-delimited: entries from further up
Structure (SMILES) | Potency
O=C(Nc1ccccc1Br)C(Cc1ccccc1)NS(=O)(=O)c1cccc2nsnc12 (stereo not drawn) | inconclusive: 11.2 µM [inhibitor, single point]
O=C(Nc1ccc(Cl)cc1)OCCn1nnnc1C(c1ccccc1)N1CCOCC1 (stereo not drawn) | inconclusive: 35.5 µM [inhibitor, single point]

Later entries:

Structure (SMILES)	Potency
CCOc1ccc(NC(=O)CN2CCN(C(=O)c3ccco3)CC2)cc1S(=O)(=O)N1CCCC1	inconclusive: 0.631 µM [activator, full curve, poor fit]
c1ccc(-n2ncc3c(N4CCCC4)ncnc32)cc1	inconclusive: 20.6 µM [inhibitor, single point]
CCCCn1c(-c2csc(CCC)c2)n[nH]c1=S	inconclusive: 14.1 µM [activator, single point]
CC(=O)Nc1ccc(/C(C)=N/Nc2nc(Nc3ccccc3)nc(N3CCOCC3)n2)cc1	inconclusive: 5.62 µM [inhibitor, full curve, poor fit]
CCOc1ccc(NC(=O)COc2ccc(C(=O)NC(C)c3ccc(S(N)(=O)=O)cc3)cc2OC)cc1 (stereo not drawn)	inconclusive: 1.26 µM [inhibitor, partial curve, poor fit]
CCOC(=O)C1CCN(C(=S)Nc2ccc(CC)cc2)CC1	inactive
Cc1nnc(SCC(=O)Nc2ccc3c(c2)OCCO3)s1	inactive
Cc1cccc(CC(=O)Nc2sc(C(C)C)cc2C(=O)N2CCOCC2)c1	inactive
Cn1c(=O)c2cc(S(=O)(=O)NC(Cc3ccccc3)C(=O)NCc3ccco3)ccc2n(C)c1=O (stereo not drawn)	inactive
O=C(c1cc(-c2cccc(O)c2)on1)N1CCCC1	inconclusive: 20 µM [inhibitor, single point]
CNC(=O)OCCSCCS(=O)(=O)c1ccc(Cl)cc1	inactive
O=C(c1ccccc1)C(CN1CCCCC1)c1ccccc1 (stereo not drawn)	inconclusive: 6.31 µM [inhibitor, full curve, poor fit]
CCc1ccc(NC(=O)C(=O)N/N=C(\C)CC(=O)NCCOC)cc1	inconclusive: 3.55 µM [activator, single point]
O=C(CCC1CCCCC1)NCc1cccnc1	inactive
COc1ccc(NC(=O)Nc2cccc(F)c2)c(OC)c1	inactive
CCOC(=O)c1sc(N(Cc2ccccc2)C(=O)COC(=O)c2cnccn2)nc1C	inactive
C[C@H](NC(=O)c1ccccc1F)C(=O)N1CCC2(CC1)NCCc1[nH]cnc12	inactive
Cc1cc(NC(=O)C2CC2)n(-c2nc3ccccc3s2)n1	inconclusive: 35.5 µM [inhibitor, single point]
CCOc1ccc(OCC)c(NC(=O)Cn2nc(CC)n3c(cc4sccc43)c2=O)c1	inactive
COc1ccc(C2c3sc(=O)[nH]c3SC3C4CCC(C4)C23)cc1OC (stereo not drawn)	inconclusive: 8.91 µM [inhibitor, partial curve, poor fit]
